Patent US20230357389A1
Where a chain is given by its changes, count along the chain named. No constants are given. Whether binding was seen depends on the method and setting. Some entries that bind do so weakly or less than the wild type.

Sequences of proteins named here, by UniProt entry; tags and fusion partners are left off. A change or cut given only in a name is not applied to a line headed by its entry.
UniProt P07766: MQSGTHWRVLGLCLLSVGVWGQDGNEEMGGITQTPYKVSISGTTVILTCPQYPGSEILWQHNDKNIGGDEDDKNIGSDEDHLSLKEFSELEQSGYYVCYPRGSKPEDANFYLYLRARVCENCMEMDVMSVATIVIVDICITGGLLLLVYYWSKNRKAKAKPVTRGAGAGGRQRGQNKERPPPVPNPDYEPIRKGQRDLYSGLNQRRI
UniProt P04234: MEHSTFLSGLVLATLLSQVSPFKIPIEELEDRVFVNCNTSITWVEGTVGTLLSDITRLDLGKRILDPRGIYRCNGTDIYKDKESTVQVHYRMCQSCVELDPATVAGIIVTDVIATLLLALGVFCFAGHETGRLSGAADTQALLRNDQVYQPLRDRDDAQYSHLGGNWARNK
UniProt P09693: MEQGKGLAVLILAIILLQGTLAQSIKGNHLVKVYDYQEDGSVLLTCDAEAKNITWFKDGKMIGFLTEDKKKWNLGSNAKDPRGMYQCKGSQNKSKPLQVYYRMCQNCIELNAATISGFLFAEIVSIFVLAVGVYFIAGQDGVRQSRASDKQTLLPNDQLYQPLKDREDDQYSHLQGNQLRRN
UniProt P20963: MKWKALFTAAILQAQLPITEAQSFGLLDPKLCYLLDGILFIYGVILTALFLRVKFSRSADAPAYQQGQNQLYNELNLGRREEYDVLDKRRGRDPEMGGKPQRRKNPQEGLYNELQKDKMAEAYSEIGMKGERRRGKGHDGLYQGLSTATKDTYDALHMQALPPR

B1: anti-CD3 monoclonal antibody HzSP34.24 (antibody, human IgG1, lambda, L234A L235A, V domains shown)
VH: EVQLVESGGGLVQPGGSLKLSCAASGFTFNTYAMNWVRQASGKGLEWVGRIRSKYNNYATYYADSVKDRFTISRDDSKSTLYLQMNSLKTEDTAVYYCARHGNFGQSYVSWFAYWGQGTTVTVSS
VL: QAVVTQEPSLTVSPGGTVTLTCRSSTGAVTTSNYANWVQQKPGQAPRGLIGGTNKRAPGVPARFSGSLLGDKAALTLLGAQPEDEAEYYCALWYSNLWVFGQGTKLTVLG
B2: anti-CD3 monoclonal antibody HzSP34.97 (antibody, human IgG1, lambda, L234A L235A, V domains shown)
VH: B1 VH with Y55A, N56G, N57G
VL: B1 VL
B3: anti-CD3 monoclonal antibody HzSP34.87 (antibody, human IgG1, lambda, L234A L235A, V domains shown)
VH: B1 VH with G102Y
VL: B1 VL

biological target: human CD3 complex on T cells (human) (UniProt P07766+P04234+P09693+P20963); experiment: flow cytometry on Jurkat cells

Row | binding | Binder
1 | binds | B1
2 | binds | B2
3 | binds | B3
